Results are given in words; binding and its absence hold for the method and conditions named. Binding seen in cells or lysates may run through a third protein. Some entries that bind do so weakly or less than the wild type. Where a sequence is shown, tags or fusion partners need not be part of it.

Amino acid sequences for entries named in this document (tags omitted).
UniProt Q96EB6: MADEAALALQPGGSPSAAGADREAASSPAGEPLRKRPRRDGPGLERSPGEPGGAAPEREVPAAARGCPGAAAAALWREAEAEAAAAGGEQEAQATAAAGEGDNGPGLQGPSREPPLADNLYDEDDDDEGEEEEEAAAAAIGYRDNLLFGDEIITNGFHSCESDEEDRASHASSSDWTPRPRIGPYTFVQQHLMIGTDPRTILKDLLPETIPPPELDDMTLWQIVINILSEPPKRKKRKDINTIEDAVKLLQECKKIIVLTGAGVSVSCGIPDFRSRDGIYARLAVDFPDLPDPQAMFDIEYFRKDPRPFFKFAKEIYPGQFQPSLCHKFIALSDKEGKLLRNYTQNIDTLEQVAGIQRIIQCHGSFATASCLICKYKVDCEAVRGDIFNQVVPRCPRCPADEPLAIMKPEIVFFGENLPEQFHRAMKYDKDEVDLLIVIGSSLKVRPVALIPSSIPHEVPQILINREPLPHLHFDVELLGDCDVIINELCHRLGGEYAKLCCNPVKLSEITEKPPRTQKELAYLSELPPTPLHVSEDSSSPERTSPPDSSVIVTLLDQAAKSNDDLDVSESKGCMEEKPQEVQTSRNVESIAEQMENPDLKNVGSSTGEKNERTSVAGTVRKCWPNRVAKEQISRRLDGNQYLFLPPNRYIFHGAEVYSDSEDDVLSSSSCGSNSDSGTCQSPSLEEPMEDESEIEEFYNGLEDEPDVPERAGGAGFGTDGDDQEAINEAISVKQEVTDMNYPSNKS

The record followed here is publication PMC8542050.

The test addresses Myc-tagged SIRT1 (UniProt Q96EB6). As to the kind of experiment: co-IP; FLAG-tagged HES5 and Myc-tagged SIRT1 co-transfected into HEK293 cells; whole-cell lysates in RIPA buffer (50 mM Tris pH 7.4, 150 mM NaCl, 1% NP40, 0.5% sodium deoxycholate, 0.1% SDS); immunoprecipitation with anti-FLAG, anti-MYC or IgG overnight, Protein A/G-plus agarose beads; western blotting.

B1: FLAG-tagged HES5 (protein, UniProt P70120 1-167)
chain: MAPSTVAVEMLSPKEKNRLRKPVVEKMRRDRINSSIEQLKLLLEQEFARHQPNSKLEKADILEMAVSYLKHSKAFAAAAGPKSLHQDYSEGYSWCLQEAVQFLTLHAASDTQMKLLYHFQRPPAPAAPAKEPPAPGAAPQPARSSAKAAAAAVSTSRQPACGLWRPW
On to B1, for which the binding result is “binds”.
